Measurements taken from article PMC10850099.

By UniProt entry, the sequences of proteins in these tests, tags left out.
UniProt Q9UJQ4: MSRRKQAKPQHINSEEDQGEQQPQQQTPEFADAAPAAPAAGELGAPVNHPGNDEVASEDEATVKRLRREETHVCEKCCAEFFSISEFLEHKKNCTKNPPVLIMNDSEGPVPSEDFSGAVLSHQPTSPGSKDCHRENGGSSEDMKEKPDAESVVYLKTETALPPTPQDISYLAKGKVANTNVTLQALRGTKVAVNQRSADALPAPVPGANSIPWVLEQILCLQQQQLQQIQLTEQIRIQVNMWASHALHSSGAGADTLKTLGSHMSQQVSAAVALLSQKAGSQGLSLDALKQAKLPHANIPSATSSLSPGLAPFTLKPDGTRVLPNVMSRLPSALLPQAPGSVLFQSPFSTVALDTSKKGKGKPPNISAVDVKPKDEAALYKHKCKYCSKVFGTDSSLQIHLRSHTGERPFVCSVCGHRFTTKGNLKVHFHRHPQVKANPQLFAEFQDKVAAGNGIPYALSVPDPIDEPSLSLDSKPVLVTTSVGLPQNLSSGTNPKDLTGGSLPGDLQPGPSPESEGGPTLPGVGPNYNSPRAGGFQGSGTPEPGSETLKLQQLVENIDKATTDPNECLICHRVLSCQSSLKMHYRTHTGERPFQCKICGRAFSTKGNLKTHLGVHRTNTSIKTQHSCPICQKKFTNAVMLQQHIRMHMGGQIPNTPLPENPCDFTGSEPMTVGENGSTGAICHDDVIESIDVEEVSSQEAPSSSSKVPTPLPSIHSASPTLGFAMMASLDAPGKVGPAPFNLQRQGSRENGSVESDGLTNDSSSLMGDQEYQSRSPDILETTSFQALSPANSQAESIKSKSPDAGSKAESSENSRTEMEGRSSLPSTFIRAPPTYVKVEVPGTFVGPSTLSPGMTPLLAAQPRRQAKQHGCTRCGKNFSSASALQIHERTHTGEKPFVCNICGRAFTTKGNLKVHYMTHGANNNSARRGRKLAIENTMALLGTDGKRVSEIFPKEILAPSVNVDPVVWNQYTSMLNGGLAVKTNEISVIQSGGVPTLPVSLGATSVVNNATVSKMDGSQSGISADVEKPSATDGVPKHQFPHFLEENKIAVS

What was measured:
[1] = target: T1, Flag-HA-tagged wild type (WT)-REN (UniProt Q693B1); assay: affinity purification with mass spectrometry; Flag-HA-REN expressed in HEK293T, MG132 10 µM for 5 h; lysis in 50 mM Tris-HCl pH 7.5, 150 mM NaCl, 1 mM EDTA, 0.5% NP40; anti-Flag agarose, elution with Flag peptide, then anti-HA resin; gel bands digested, LTQ Orbitrap XL
T1 sequence: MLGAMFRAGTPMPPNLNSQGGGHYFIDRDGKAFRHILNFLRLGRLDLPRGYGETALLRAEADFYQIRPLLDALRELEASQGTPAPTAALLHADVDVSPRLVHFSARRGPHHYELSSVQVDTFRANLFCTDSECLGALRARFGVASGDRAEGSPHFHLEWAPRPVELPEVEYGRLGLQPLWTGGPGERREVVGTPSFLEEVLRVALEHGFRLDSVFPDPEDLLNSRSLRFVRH

[2] = target: T2, Flag-HA-tagged wild type (WT)-REN, Q693B1; assay: as above; conditions: remark: other sources report otherwise
T2 chain: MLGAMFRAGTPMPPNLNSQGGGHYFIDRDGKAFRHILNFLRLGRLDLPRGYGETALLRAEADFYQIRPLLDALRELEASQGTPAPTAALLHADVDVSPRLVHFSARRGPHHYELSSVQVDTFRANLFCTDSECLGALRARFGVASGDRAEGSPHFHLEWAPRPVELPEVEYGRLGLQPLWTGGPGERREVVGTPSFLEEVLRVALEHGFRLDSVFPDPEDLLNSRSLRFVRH

## endogenous SALL4 (from UniProt Q9UJQ4 1-1053)
[1]
  binding: binds

B1: KCTD15, Q96SI1 1-283 (protein)
chain: MPHRKERPSGSSLHTHGSTGTAEGGNMSRLSLTRSPVSPLAAQGIPLPAQLTKSNAPVHIDVGGHMYTSSLATLTKYPDSRISRLFNGTEPIVLDSLKQHYFIDRDGEIFRYVLSFLRTSKLLLPDDFKDFSLLYEEARYYQLQPMVRELERWQQEQEQRRRSRACDCLVVRVTPDLGERIALSGEKALIEEVFPETGDVMCNSVNAGWNQDPTHVIRFPLNGYCRLNSVQVLERLFQRGFSVAASCGGGVDSSQFSEYVLCREERRPQPTPTAVRIKQEPLD
[2]
  binding: binds

No constants are given. Whether binding was seen depends on the method and setting. Binding seen in cells or lysates may run through a third protein. Here binding means that the protein was enriched with, or labelled near, the bait; the list need not be complete. Where a sequence is shown, tags or fusion partners need not be part of it.
